Measured values from the supplement of paper PMC6411743.
± gives the standard deviation of the averaged measurements. The list shows a part of the results, in another mix than the full data. Small differences around the control level are noise.

Sequences of proteins named here, by UniProt entry; tags and fusion partners are left off. A change or cut given only in a name is not applied to a line headed by its entry.
UniProt O95294: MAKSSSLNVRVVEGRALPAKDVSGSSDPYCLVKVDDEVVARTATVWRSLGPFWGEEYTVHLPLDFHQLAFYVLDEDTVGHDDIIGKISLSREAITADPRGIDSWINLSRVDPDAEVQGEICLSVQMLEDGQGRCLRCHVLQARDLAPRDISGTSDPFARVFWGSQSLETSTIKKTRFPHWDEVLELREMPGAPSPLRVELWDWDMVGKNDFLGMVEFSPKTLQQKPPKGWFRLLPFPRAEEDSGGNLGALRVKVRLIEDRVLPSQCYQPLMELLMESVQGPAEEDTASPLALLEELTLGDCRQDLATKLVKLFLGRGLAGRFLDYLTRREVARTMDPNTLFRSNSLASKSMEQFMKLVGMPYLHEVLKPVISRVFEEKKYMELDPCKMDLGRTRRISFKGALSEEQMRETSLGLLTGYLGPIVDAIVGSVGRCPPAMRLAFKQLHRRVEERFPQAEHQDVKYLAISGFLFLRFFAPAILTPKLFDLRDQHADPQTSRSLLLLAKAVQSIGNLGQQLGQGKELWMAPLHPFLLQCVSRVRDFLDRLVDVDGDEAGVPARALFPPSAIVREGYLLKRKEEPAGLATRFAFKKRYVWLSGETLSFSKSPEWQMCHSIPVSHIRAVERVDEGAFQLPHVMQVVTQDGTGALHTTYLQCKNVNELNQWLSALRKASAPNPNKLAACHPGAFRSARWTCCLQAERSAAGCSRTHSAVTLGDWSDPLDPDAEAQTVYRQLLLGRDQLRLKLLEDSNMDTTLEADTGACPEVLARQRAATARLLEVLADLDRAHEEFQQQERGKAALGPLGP
UniProt O95183: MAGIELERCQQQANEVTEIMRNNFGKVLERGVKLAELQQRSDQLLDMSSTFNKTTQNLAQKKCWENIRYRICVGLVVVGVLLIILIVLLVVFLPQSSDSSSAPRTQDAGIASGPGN
UniProt O60547: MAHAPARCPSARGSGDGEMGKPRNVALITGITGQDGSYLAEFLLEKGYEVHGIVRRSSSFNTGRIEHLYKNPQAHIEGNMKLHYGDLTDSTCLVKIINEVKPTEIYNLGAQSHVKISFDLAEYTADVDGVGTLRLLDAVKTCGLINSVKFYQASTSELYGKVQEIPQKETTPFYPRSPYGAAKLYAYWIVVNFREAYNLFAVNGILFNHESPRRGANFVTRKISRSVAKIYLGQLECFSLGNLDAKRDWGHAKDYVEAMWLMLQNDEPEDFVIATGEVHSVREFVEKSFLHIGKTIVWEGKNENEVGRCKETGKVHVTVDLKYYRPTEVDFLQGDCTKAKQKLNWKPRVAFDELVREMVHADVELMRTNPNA
UniProt O95243: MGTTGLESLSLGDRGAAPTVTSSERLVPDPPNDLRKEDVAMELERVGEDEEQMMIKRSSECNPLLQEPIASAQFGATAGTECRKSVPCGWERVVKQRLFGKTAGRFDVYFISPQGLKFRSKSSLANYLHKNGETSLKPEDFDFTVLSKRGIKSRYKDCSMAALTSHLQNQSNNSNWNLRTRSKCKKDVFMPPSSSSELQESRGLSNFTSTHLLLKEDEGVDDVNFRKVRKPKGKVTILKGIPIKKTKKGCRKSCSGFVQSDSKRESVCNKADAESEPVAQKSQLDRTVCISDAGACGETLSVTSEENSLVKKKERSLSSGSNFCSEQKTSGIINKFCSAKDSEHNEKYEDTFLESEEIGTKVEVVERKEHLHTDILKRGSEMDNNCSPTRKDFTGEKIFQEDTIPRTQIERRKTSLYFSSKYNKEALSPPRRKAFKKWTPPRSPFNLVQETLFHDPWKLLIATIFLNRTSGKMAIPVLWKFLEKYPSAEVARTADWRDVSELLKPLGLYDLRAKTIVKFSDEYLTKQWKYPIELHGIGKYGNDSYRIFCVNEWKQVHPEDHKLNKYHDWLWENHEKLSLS
UniProt O75882: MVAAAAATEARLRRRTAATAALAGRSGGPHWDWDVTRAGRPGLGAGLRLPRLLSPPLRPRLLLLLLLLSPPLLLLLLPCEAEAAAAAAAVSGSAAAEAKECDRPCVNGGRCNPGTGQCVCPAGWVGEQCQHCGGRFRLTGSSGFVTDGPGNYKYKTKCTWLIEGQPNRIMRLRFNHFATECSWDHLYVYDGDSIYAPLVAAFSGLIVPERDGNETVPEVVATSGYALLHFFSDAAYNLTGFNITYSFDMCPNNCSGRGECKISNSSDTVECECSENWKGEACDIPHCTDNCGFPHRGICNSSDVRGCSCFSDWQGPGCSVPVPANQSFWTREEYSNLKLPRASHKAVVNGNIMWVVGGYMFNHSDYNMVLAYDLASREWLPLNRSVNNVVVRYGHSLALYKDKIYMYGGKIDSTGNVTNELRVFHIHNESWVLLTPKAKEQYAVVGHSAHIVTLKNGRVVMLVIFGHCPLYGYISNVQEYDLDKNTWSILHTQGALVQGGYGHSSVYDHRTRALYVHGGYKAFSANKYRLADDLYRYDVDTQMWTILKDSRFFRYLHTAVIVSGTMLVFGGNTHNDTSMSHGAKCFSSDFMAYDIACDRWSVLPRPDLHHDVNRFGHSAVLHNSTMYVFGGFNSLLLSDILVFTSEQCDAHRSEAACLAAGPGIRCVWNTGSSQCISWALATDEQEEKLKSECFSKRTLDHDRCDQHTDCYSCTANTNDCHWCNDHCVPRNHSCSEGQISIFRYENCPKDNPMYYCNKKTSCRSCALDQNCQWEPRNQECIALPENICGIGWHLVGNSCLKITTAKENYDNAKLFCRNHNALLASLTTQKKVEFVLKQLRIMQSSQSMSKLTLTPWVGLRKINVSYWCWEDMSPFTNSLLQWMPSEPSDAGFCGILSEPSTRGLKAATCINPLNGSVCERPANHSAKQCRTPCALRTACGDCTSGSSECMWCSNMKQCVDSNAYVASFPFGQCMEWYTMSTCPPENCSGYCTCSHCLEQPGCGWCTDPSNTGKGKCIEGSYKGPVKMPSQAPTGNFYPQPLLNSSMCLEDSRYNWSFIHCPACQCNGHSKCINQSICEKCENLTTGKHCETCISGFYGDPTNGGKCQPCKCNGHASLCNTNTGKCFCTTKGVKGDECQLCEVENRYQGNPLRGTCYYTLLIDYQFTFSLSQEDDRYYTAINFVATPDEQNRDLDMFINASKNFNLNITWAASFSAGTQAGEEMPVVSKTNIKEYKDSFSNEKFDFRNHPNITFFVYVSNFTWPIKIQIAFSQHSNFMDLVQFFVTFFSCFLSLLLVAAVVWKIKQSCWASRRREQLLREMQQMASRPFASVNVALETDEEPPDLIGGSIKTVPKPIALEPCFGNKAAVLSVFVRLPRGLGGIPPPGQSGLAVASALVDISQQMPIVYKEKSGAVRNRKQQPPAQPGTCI
UniProt O75391: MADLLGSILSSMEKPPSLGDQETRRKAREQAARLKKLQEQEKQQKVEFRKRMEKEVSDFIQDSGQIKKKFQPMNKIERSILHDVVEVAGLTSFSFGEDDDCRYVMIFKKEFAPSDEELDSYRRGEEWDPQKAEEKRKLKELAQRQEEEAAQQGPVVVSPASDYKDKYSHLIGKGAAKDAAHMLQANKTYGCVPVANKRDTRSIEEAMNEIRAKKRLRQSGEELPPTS
UniProt O95757: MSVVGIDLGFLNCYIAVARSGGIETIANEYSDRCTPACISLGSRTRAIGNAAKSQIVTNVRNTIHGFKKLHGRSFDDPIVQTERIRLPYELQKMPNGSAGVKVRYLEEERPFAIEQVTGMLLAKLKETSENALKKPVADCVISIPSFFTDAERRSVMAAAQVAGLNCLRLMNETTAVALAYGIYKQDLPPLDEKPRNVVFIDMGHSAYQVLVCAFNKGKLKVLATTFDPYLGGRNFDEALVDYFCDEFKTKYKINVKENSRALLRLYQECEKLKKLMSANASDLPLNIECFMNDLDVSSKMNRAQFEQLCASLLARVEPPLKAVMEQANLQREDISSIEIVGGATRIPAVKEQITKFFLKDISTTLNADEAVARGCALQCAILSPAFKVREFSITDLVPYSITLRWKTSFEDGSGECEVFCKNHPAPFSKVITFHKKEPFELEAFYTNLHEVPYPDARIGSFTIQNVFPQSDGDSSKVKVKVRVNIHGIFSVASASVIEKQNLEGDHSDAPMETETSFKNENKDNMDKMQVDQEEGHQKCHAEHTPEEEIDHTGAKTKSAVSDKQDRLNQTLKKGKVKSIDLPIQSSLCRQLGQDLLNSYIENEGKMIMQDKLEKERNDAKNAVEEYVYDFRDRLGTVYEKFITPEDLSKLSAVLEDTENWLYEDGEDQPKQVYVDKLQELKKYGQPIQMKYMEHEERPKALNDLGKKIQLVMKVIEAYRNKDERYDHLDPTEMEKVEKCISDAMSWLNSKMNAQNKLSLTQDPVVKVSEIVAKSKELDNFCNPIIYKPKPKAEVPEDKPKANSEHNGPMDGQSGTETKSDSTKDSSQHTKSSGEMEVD
UniProt O95573: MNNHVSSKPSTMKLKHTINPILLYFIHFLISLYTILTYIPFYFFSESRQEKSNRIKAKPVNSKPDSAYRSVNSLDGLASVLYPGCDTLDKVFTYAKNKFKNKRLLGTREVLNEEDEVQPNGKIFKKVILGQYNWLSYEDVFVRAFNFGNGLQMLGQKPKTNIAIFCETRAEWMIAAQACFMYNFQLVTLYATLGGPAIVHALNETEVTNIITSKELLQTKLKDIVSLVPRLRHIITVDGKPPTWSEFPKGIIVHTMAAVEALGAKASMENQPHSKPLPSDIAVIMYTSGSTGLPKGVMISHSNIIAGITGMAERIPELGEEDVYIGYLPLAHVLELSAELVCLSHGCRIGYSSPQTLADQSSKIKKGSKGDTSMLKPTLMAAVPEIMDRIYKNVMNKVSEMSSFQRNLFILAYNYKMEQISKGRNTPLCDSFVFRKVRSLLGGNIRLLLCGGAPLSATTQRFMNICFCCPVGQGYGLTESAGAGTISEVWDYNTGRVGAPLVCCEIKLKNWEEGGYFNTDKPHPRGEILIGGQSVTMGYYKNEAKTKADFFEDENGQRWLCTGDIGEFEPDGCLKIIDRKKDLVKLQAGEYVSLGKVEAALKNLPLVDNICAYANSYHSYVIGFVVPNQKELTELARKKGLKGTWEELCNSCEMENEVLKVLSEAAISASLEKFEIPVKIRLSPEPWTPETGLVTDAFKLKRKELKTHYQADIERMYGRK
UniProt O95372: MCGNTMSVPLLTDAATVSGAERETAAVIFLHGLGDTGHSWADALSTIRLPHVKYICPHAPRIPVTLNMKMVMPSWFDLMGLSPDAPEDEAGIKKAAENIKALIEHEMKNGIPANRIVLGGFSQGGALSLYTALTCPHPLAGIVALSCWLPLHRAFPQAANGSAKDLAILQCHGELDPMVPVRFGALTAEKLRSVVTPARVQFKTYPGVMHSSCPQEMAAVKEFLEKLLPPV
UniProt O95716: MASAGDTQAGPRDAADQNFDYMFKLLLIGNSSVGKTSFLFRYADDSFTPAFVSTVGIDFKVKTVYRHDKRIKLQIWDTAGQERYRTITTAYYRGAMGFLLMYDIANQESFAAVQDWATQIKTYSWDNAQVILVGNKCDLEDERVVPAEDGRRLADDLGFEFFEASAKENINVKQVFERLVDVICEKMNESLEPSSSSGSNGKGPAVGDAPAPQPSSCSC
UniProt O94906: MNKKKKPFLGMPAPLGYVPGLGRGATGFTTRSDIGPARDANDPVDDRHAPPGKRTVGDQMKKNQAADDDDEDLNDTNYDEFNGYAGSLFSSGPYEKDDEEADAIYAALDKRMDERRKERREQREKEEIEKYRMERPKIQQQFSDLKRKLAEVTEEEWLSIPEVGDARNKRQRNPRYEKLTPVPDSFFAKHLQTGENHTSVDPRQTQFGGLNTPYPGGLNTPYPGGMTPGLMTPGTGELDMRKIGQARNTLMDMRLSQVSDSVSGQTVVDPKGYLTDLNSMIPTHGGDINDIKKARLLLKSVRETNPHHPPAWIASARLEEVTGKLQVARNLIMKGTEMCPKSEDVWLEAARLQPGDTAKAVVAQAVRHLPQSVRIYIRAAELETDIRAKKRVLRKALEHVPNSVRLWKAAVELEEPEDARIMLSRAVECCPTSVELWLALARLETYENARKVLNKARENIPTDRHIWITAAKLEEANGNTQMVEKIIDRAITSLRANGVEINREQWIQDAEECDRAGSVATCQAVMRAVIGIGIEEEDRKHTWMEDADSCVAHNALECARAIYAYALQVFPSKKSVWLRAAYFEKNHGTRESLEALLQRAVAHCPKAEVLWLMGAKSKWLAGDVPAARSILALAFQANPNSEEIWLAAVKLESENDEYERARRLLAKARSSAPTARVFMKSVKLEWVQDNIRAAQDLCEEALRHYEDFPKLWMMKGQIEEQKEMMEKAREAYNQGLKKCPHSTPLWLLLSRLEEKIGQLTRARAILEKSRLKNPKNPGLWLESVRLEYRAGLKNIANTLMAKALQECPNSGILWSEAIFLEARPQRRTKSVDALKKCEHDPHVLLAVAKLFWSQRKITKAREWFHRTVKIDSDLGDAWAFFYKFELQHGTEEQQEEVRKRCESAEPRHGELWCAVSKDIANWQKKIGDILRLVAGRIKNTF

Compound: Nc1ncnc2c1ncn2[C@@H]1O[C@H](COP(=O)(O)OP(=O)(O)OP(=O)(O)O)[C@@H](O)[C@H]1O [adenosine triphosphate]
Test: NP40-soluble protein abundance relative to vehicle (solubility fold change) (ratio); higher = more soluble protein in presence of ATP
Method in brief: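 In three independent experiments, Jurkat crude lysate made by Dounce homogenisation was treated for 10 min at room temperature and then 3 min at 37 °C with eight concentrations ranging from 0.1 to 10 mM. It was then solubilised with 0.8% NP40 plus benzonase for 60 min at 4 °C and ultracentrifuged. The supernatant was TMT-labelled for LC-MS/MS, and each value is the fold change against the detergent-processed vehicle for the same replicate, using vsn-normalised intensities.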

UBXN7 (UniProt O94888)
NP40-soluble protein abundance (concentration: 0.1mM): 1 ± 0.025 | NP40-soluble protein abundance (concentration: 0.5mM): 0.971 ± 0.023

UniProt O95379-3|O95379-4
NP40-soluble protein abundance (concentration: 0.1mM): 0.869 ± 0.035 | NP40-soluble protein abundance (concentration: 0.5mM): 0.89 ± 0.057 | NP40-soluble protein abundance (concentration: 1mM): 0.855 ± 0.036 | NP40-soluble protein abundance (concentration: 2mM): 0.93 ± 0.019 | NP40-soluble protein abundance (concentration: 4mM): 0.885 ± 0.032 | NP40-soluble protein abundance (concentration: 6mM): 0.9504 ± 0.0062 | NP40-soluble protein abundance (concentration: 8mM): 0.932 ± 0.035 | NP40-soluble protein abundance (concentration: 10mM): 0.85 ± 0.1

UniProt O95294 and related entries
NP40-soluble protein abundance (concentration: 0.1mM): 0.96 ± 0.046 | NP40-soluble protein abundance (concentration: 0.5mM): 1.01 ± 0.061 | NP40-soluble protein abundance (concentration: 1mM): 0.95 ± 0.03 | NP40-soluble protein abundance (concentration: 2mM): 0.96 ± 0.069 | NP40-soluble protein abundance (concentration: 4mM): 1.01 ± 0.058 | NP40-soluble protein abundance (concentration: 6mM): 0.994 ± 0.11 | NP40-soluble protein abundance (concentration: 8mM): 0.962 ± 0.13 | NP40-soluble protein abundance (concentration: 10mM): 0.965 ± 0.15

XYLB (UniProt O75191)
NP40-soluble protein abundance (concentration: 0.1mM): 1.04 ± 0.061 | NP40-soluble protein abundance (concentration: 0.5mM): 1.03 ± 0.082 | NP40-soluble protein abundance (concentration: 1mM): 1 ± 0.053 | NP40-soluble protein abundance (concentration: 2mM): 0.986 ± 0.062 | NP40-soluble protein abundance (concentration: 4mM): 0.984 ± 0.097 | NP40-soluble protein abundance (concentration: 6mM): 0.965 ± 0.069 | NP40-soluble protein abundance (concentration: 8mM): 0.99 ± 0.075 | NP40-soluble protein abundance (concentration: 10mM): 0.967 ± 0.053

VAMP5 (UniProt O95183)
NP40-soluble protein abundance (concentration: 0.1mM): 0.878 ± 0.068 | NP40-soluble protein abundance (concentration: 0.5mM): 0.825 ± 0.17

GMDS (UniProt O60547)
NP40-soluble protein abundance (concentration: 0.1mM): 1.07 ± 0.11 | NP40-soluble protein abundance (concentration: 0.5mM): 1.06 ± 0.1

UniProt O95243 and related entries
NP40-soluble protein abundance (concentration: 0.1mM): 1.04 ± 0.063 | NP40-soluble protein abundance (concentration: 0.5mM): 1.03 ± 0.036

ATRN (UniProt O75882)
NP40-soluble protein abundance (concentration: 0.1mM): 0.941 ± 0.07 | NP40-soluble protein abundance (concentration: 0.5mM): 0.914 ± 0.056 | NP40-soluble protein abundance (concentration: 1mM): 0.928 ± 0.039 | NP40-soluble protein abundance (concentration: 2mM): 0.947 ± 0.048 | NP40-soluble protein abundance (concentration: 4mM): 0.975 ± 0.015 | NP40-soluble protein abundance (concentration: 6mM): 0.959 ± 0.095 | NP40-soluble protein abundance (concentration: 8mM): 0.896 ± 0.01 | NP40-soluble protein abundance (concentration: 10mM): 0.899 ± 0.057

SPAG7 (UniProt O75391)
NP40-soluble protein abundance (concentration: 0.1mM): 0.95 ± 0.067 | NP40-soluble protein abundance (concentration: 0.5mM): 0.946 ± 0.06 | NP40-soluble protein abundance (concentration: 1mM): 0.972 ± 0.053 | NP40-soluble protein abundance (concentration: 2mM): 0.964 ± 0.047 | NP40-soluble protein abundance (concentration: 4mM): 0.964 ± 0.04 | NP40-soluble protein abundance (concentration: 6mM): 0.969 ± 0.046 | NP40-soluble protein abundance (concentration: 8mM): 0.9594 ± 0.0036 | NP40-soluble protein abundance (concentration: 10mM): 0.903 ± 0.058

HSPA4L (UniProt O95757)
NP40-soluble protein abundance (concentration: 0.1mM): 1 ± 0.038 | NP40-soluble protein abundance (concentration: 0.5mM): 1.02 ± 0.057 | NP40-soluble protein abundance (concentration: 1mM): 0.964 ± 0.015 | NP40-soluble protein abundance (concentration: 2mM): 0.9785 ± 0.0092 | NP40-soluble protein abundance (concentration: 4mM): 0.951 ± 0.018 | NP40-soluble protein abundance (concentration: 6mM): 0.987 ± 0.018 | NP40-soluble protein abundance (concentration: 8mM): 0.937 ± 0.036 | NP40-soluble protein abundance (concentration: 10mM): 0.949 ± 0.019

ACSL3 (UniProt O95573)
NP40-soluble protein abundance (concentration: 0.1mM): 1.04 ± 0.037 | NP40-soluble protein abundance (concentration: 0.5mM): 1.07 ± 0.036 | NP40-soluble protein abundance (concentration: 1mM): 1.02 ± 0.05 | NP40-soluble protein abundance (concentration: 2mM): 1.05 ± 0.028 | NP40-soluble protein abundance (concentration: 4mM): 1.03 ± 0.036 | NP40-soluble protein abundance (concentration: 6mM): 1 ± 0.11 | NP40-soluble protein abundance (concentration: 8mM): 1.03 ± 0.041 | NP40-soluble protein abundance (concentration: 10mM): 1.01 ± 0.031

LYPLA2 (UniProt O95372)
NP40-soluble protein abundance (concentration: 0.1mM): 0.9747 ± 0.006 | NP40-soluble protein abundance (concentration: 0.5mM): 0.935 ± 0.058

RAB3D (UniProt O95716)
NP40-soluble protein abundance (concentration: 0.1mM): 1.02 ± 0.14 | NP40-soluble protein abundance (concentration: 0.5mM): 1.01 ± 0.068

DNAJC13 (UniProt O75165)
NP40-soluble protein abundance (concentration: 0.1mM): 1.04 ± 0.044 | NP40-soluble protein abundance (concentration: 0.5mM): 1.05 ± 0.055 | NP40-soluble protein abundance (concentration: 1mM): 1.15 ± 0.024 | NP40-soluble protein abundance (concentration: 2mM): 1.29 ± 0.095 | NP40-soluble protein abundance (concentration: 4mM): 1.3 ± 0.043 | NP40-soluble protein abundance (concentration: 6mM): 1.35 ± 0.12 | NP40-soluble protein abundance (concentration: 8mM): 1.68 ± 0.12 | NP40-soluble protein abundance (concentration: 10mM): 1.73 ± 0.22

PRPF6 (UniProt O94906)
NP40-soluble protein abundance (concentration: 0.1mM): 0.998 ± 0.078 | NP40-soluble protein abundance (concentration: 0.5mM): 1.12 ± 0.11 | NP40-soluble protein abundance (concentration: 1mM): 1.31 ± 0.017 | NP40-soluble protein abundance (concentration: 2mM): 1.5 ± 0.12 | NP40-soluble protein abundance (concentration: 4mM): 1.79 ± 0.13 | NP40-soluble protein abundance (concentration: 6mM): 1.97 ± 0.2 | NP40-soluble protein abundance (concentration: 8mM): 2.18 ± 0.15 | NP40-soluble protein abundance (concentration: 10mM): 2.36 ± 0.21
